Measured values as given in publication PMC11499256, “Two-factor authentication underpins the precision of the piRNA pathway” (Nature, 2024).

Sequences of proteins named here, by UniProt entry; tags and fusion partners are left off. A change or cut given only in a name is not applied to a line headed by its entry.
UniProt B1ASB6: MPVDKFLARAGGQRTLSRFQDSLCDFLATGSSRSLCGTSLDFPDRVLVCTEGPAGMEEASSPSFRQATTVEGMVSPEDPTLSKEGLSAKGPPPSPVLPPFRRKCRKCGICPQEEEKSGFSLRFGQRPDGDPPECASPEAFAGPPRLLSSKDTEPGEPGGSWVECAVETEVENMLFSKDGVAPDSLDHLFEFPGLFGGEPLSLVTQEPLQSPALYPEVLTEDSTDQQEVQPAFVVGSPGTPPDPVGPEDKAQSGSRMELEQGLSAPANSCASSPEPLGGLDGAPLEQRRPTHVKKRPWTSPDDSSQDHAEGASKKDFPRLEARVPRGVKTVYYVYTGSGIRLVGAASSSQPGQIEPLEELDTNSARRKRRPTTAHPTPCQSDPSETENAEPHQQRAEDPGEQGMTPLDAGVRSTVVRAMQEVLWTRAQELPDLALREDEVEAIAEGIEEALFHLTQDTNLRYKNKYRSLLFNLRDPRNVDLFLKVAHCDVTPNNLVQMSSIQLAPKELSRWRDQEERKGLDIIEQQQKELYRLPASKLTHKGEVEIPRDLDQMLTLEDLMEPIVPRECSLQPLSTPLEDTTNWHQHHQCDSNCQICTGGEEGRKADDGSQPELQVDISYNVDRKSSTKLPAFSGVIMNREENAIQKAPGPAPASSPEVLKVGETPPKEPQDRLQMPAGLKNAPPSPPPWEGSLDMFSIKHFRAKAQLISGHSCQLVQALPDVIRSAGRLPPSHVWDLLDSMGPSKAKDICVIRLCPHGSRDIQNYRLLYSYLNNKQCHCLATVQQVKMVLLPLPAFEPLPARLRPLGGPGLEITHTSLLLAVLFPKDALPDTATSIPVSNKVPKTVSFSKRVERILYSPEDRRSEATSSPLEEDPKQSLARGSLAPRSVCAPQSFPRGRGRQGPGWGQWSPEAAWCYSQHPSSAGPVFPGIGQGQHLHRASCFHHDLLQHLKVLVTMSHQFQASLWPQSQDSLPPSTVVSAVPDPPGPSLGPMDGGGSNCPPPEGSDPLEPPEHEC
UniProt Q61142: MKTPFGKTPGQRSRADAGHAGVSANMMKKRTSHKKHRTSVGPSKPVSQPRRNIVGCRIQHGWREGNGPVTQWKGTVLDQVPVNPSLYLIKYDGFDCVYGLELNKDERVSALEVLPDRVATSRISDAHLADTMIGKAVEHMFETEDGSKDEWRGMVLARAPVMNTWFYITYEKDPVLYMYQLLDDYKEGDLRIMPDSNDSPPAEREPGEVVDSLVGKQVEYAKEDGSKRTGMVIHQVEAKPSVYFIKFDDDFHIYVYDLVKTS
UniProt Q9CWR8: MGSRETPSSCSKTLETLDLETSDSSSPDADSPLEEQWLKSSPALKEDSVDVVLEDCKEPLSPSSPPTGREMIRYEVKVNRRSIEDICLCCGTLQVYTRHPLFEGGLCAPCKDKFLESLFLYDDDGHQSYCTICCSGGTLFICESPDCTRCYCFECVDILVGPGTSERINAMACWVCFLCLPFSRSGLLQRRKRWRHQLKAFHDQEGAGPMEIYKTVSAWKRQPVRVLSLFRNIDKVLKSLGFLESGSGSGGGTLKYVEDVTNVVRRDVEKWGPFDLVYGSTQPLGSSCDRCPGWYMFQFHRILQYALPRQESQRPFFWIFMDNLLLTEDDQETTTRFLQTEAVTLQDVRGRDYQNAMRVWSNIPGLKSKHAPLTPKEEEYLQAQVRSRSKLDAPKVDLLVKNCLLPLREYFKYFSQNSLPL

Columns and labels:
[1] = target: Xenopus tropicalis SPOCD1 fragment (amino acids 1–229), GST-tagged (Xenopus tropicalis); test: pull-down; co-precipitation of recombinant proteins, Coomassie gel, n = 3; both purified
[2] = target: SPOCD1-ΔSPIN1 (SPOCD1 with eight amino acids mutated to alanine), HA epitope-tagged (mouse) (UniProt B1ASB6); test: co-IP; HEK293T co-transfected; lysis in IP buffer (150 mM KCl, 2.5 mM MgCl2, 0.5% Triton X-100, 50 mM Tris-HCl pH 8, benzonase); anti-HA beads 1 h at 4 °C; western blot

Row | binding [1] | binding [2] | Substance
1 | binds | – | mouse SPIN1 (amino acids 49–262), recombinant, His tag cleaved (from UniProt Q61142 49-262) (domain or fragment)
2 | – | binds | FLAG-tagged DNMT3L (from UniProt Q9CWR8 1-421)
3 | – | no binding | SPIN1 (SPINDLIN1), co-expressed in HEK cells (from UniProt Q61142 1-262)

These are yes or no findings as the source states them, for the method shown. In cells and extracts the contact can be indirect. A result given as binding can be weak or reduced; the word gives no strength.
